Values quoted from earlier work in US20250057785A1, “APPLICATION OF 10'(Z), 13'(E), 15'(E)-HEPTADECATRIENYL HYDROQUINONE (HQ17(3)) IN TREATING CORONAVIRUS INFECTION” (National Atomic Research Institute, priority 2023, published 2025).
At least one compound was matched to its structure with a doubt left.

Tested on: COVID-19
Conditions: severe cases intubated or equipped with ECMO; cited from earlier work

**Q.** With CCC(CC)COC(=O)[C@H](C)N[P@](=O)(OC[C@H]1O[C@@](C#N)(c2ccc3c(N)ncnn23)[C@H](O)[C@@H]1O)Oc1ccccc1 [Remdesivir] as the compound, how does the “reduction of mortality or prognosis” value read?
**A.** no effective reduction of mortality or prognosis significantly
